Measurements reported in the supplement of paper PMC10849652.
Some of the results follow.

Amino acid sequences for entries named in this document (tags omitted). A change or cut given only in a name is not applied to a line headed by its entry.
UniProt Q9NX07: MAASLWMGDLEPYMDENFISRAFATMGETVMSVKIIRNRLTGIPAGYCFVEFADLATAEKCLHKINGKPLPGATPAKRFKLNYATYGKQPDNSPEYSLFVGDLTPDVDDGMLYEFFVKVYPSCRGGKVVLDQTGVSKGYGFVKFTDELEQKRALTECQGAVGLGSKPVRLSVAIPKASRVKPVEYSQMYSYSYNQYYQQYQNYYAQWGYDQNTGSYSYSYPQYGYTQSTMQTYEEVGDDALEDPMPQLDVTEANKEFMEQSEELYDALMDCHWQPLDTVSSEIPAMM
UniProt O75157: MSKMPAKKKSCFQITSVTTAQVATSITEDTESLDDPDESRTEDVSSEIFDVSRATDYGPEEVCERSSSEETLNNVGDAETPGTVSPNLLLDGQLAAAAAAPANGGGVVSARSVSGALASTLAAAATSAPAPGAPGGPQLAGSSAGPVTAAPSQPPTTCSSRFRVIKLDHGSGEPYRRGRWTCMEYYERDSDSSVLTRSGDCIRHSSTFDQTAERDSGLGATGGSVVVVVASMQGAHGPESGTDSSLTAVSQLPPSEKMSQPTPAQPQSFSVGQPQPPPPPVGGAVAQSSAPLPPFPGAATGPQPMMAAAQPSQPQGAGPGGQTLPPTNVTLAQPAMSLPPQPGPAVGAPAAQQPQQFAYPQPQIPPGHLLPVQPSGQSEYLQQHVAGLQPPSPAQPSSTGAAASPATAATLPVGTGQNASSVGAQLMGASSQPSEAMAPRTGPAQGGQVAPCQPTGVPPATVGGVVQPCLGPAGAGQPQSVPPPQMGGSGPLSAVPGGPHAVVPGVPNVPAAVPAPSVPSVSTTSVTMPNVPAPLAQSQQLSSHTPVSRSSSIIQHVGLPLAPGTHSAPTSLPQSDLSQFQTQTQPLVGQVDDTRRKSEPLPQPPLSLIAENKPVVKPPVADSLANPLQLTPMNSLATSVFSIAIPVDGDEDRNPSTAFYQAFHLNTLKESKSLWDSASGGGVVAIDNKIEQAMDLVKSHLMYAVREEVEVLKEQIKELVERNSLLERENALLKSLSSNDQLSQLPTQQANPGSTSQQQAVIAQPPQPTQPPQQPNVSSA
UniProt Q7Z6J9: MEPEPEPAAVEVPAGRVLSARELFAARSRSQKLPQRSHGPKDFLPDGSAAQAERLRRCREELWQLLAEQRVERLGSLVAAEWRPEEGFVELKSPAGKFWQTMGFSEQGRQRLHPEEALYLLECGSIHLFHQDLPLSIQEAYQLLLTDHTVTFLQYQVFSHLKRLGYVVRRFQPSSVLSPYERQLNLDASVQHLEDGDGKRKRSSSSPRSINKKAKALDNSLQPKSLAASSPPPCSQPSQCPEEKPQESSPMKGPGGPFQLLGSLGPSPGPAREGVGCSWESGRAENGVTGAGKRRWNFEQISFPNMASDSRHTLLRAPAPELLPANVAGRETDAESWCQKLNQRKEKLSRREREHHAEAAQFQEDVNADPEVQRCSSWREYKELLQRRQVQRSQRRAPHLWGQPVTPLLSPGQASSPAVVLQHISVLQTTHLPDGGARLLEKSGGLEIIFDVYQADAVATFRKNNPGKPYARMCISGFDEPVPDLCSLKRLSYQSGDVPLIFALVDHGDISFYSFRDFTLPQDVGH
UniProt Q9Y5U2: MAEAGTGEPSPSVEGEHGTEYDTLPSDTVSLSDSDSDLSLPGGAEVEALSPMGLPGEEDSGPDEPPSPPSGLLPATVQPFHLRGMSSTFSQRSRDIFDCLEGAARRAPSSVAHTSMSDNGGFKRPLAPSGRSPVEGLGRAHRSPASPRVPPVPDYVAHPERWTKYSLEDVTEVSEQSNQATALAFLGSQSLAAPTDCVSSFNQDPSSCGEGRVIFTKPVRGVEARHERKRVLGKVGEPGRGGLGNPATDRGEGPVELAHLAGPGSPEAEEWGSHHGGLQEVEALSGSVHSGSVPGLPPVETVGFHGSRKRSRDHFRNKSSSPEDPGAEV
UniProt O95801: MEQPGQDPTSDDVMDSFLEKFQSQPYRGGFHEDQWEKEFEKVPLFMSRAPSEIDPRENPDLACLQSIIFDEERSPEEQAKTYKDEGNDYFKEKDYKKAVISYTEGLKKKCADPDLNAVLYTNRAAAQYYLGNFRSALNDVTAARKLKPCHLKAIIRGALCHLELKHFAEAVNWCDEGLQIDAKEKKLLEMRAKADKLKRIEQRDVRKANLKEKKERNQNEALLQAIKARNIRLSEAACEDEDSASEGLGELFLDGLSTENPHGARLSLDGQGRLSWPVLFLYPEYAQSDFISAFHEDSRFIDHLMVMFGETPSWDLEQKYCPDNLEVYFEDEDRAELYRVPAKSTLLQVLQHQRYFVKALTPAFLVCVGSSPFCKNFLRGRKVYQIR
UniProt Q9Y3Q8: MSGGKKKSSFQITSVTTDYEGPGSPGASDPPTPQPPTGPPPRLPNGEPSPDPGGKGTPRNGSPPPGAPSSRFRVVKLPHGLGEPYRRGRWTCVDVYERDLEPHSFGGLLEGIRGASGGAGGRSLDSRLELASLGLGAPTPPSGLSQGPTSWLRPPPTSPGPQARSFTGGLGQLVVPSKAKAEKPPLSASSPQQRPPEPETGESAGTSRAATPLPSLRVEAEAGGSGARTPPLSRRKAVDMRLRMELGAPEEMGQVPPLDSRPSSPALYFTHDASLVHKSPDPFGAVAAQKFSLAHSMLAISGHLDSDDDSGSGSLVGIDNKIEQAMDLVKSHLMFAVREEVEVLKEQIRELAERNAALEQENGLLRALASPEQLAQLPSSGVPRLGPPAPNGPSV
UniProt Q15629: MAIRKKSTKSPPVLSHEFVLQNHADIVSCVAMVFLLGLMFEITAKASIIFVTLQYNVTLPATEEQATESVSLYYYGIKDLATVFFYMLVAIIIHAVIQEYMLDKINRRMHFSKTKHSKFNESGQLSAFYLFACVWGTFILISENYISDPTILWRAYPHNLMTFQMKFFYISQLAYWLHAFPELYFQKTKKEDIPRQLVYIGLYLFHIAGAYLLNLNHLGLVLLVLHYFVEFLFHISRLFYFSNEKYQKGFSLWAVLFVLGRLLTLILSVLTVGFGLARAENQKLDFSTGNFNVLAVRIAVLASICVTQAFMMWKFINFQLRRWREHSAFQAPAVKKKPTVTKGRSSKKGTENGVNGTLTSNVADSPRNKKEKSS
UniProt Q7Z4G4: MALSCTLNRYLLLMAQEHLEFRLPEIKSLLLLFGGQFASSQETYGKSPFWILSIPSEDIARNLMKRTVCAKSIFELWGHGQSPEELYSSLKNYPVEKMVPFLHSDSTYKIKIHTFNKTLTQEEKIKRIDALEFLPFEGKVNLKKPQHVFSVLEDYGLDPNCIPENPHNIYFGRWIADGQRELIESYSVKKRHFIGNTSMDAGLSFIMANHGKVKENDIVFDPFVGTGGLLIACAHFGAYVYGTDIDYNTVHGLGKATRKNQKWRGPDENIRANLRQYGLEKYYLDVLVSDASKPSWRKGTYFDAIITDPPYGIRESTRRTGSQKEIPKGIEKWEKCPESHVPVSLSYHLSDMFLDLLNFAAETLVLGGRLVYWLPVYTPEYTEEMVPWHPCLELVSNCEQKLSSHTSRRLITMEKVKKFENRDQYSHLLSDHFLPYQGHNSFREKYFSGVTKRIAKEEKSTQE
UniProt Q8NG11: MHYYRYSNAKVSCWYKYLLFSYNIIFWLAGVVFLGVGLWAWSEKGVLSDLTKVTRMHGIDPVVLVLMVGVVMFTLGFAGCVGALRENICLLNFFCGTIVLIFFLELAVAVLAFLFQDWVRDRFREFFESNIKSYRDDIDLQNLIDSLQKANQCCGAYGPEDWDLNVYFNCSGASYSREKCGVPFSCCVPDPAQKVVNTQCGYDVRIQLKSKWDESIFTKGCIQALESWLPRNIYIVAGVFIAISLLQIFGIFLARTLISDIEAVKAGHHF
UniProt Q99614: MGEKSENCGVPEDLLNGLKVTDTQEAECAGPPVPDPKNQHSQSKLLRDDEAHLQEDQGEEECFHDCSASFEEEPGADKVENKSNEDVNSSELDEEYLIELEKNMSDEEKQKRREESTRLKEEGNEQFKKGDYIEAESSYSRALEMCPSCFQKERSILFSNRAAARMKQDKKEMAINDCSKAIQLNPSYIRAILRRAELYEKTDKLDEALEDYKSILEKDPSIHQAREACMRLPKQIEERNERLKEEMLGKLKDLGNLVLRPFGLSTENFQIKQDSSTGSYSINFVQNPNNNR
UniProt Q96FX7: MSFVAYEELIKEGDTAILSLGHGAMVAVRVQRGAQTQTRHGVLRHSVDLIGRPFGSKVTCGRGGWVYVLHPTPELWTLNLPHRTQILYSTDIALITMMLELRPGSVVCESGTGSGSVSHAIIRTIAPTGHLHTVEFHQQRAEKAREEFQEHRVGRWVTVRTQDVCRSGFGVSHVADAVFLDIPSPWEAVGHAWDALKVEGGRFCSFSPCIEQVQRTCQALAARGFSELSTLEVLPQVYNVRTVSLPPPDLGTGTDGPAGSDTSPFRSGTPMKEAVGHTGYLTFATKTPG
UniProt Q86SZ2: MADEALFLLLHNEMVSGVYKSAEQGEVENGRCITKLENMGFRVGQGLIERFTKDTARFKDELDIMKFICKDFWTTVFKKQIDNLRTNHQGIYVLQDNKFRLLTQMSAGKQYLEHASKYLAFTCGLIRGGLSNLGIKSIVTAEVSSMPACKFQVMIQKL
UniProt O95857: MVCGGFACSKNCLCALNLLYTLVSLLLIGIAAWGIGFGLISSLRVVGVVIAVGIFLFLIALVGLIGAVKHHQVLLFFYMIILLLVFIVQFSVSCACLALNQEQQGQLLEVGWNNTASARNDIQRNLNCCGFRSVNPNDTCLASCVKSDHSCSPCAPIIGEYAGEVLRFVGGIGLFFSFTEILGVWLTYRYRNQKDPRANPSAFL
UniProt Q8WW01: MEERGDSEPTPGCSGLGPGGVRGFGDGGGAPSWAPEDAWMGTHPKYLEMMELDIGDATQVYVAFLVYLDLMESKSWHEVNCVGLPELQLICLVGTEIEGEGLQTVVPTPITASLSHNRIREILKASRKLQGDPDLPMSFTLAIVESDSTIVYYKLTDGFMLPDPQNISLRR
UniProt Q9UJK0: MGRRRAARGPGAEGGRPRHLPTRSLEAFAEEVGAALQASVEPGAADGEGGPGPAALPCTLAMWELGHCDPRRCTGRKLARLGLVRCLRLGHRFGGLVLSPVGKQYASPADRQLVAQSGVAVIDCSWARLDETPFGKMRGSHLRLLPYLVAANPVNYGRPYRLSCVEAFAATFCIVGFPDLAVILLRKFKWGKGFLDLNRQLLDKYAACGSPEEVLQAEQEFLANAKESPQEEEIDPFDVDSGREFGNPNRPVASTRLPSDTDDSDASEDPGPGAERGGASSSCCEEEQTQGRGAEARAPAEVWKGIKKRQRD
UniProt Q15714: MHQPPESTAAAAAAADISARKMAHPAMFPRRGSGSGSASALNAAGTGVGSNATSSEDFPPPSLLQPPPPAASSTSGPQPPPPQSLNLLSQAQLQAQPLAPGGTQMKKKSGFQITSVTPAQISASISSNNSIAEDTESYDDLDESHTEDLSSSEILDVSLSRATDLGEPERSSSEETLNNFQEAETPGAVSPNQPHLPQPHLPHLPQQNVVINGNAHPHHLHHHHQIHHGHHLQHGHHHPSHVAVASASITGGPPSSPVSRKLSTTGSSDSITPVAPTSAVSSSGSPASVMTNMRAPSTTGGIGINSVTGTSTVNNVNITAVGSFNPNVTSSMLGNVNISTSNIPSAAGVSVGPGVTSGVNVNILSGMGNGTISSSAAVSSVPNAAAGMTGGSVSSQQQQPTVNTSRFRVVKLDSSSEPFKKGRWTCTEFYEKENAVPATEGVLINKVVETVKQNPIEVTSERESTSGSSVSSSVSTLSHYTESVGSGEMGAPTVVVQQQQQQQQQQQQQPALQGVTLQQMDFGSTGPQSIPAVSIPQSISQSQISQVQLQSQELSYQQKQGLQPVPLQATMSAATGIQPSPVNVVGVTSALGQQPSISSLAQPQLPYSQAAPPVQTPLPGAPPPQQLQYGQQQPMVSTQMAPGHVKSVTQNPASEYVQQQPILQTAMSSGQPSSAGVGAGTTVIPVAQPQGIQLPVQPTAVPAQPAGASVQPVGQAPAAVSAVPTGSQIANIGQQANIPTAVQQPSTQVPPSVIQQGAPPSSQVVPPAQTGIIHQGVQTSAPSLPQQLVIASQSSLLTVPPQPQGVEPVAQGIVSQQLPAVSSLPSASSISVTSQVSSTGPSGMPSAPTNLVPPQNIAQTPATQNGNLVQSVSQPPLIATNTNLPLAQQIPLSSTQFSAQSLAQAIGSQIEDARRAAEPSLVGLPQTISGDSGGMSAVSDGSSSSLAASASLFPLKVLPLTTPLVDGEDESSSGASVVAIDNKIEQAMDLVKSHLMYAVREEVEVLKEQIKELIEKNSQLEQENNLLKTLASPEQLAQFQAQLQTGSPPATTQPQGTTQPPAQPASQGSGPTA

What was measured:
Assay in all cases: log2 fold change, soluble protein after heating vs DMSO (PISA); higher = thermal stabilisation; K562 lysate, 10 uM; active = over 0.2 and 3.5 SD of the protein, either way, in both replicates (recomputed)
nilotinib = compound: Cc1cn(-c2cc(NC(=O)c3ccc(C)c(Nc4nccc(-c5cccnc5)n4)c3)cc(C(F)(F)F)c2)cn1 [nilotinib]
Summary of the method: (§1)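 Soluble protein was defined as the supernatant remaining after 21,000xg for 90 min, following pooling of heated aliquots and adjustment to 0.5% NP-40 at 4°C. Before that, crude K562 extract at 1 mg/mL protein in PBS pH 7.4 with 1 mM MgCl2 was treated with 10 μM compound for 30 min and heated for 3 min across 48°C-58°C. Quantification used TMTpro 16plex LC-MS/MS with channel sums equalised, and values are log-two fold changes in thermal stability relative to solvent controls from duplicates.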

[1] = compound: Cc1nc(Nc2n[nH]c3c2CN(C(=O)N[C@H](CN(C)C)c2ccccc2)C3(C)C)c2sccc2n1
Summary of the method: as §1

dasatinib = compound: Cc1nc(Nc2ncc(C(=O)Nc3c(C)cccc3Cl)s2)cc(N2CCN(CCO)CC2)n1 [dasatinib]
Summary of the method: as §1

[2] = compound: Cc1ncc(-c2ccnc(Nc3ccc(S(C)(=O)=O)cc3)n2)n1C(C)C
Summary of the method: as §1

[3] = compound: Cn1cc(-c2ccc3c(c2)CCN3C(=O)Cc2cccc(C(F)(F)F)c2)c2c(N)ncnc21
Summary of the method: as §1

quisinostat = compound: Cn1cc(CNCC2CCN(c3ncc(C(=O)NO)cn3)CC2)c2ccccc21 [quisinostat]
Summary of the method: as §1

tipifarnib = compound: Cn1cncc1[C@@](N)(c1ccc(Cl)cc1)c1ccc2c(c1)c(-c1cccc(Cl)c1)cc(=O)n2C [tipifarnib]
Summary of the method: as §1

[4] = compound: NC(=O)Nc1cc(-c2cccc(F)c2)sc1C(=O)N[C@H]1CCCNC1
Summary of the method: as §1

[5] = compound: NC(=O)c1cnc(N[C@@H]2CCCC[C@@H]2N)nc1Nc1cccc(-n2nccn2)c1
Summary of the method: as §1

[6] = compound: NC1(c2ccc(-c3nc4ccn5c(=O)[nH]nc5c4cc3-c3ccccc3)cc2)CCC1
Summary of the method: as §1

[7] = compound: NCC(=O)Nc1ccc(-n2nc(C(F)(F)F)cc2-c2ccc3c(ccc4ccccc43)c2)cc1
Summary of the method: as §1

vorinostat = compound: O=C(CCCCCCC(=O)Nc1ccccc1)NO [vorinostat]
Summary of the method: as §1

silmitasertib = compound: O=C(O)c1ccc2c(c1)nc(Nc1cccc(Cl)c1)c1ccncc12 [silmitasertib]
Summary of the method: as §1

[8] = compound: O=C1NC(=O)C(c2cnc3ccccn23)=C1c1cn2c3c(cc(F)cc13)CN(C(=O)N1CCCCC1)CC2
Summary of the method: as §1

entospletinib = compound: c1cn2cc(-c3ccc4cn[nH]c4c3)nc(Nc3ccc(N4CCOCC4)cc3)c2n1 [entospletinib]
Summary of the method: as §1

Measured: log2 fold change

TRNAU1AP (UniProt Q9NX07)
inactive: nilotinib -0.145 | [1] 0.016 | dasatinib 0.018 | [2] 0.046 | [3] 0.015 | quisinostat 0.012 | tipifarnib -0.06 | [4] 0.059 | [5] -0.011 | [6] -0.013 | [7] 0.079 | vorinostat -0.178 | silmitasertib 0.026 | [8] -0.017 | entospletinib -0.047

TTC17 (UniProt Q96AE7)
inactive: nilotinib -0.01 | [1] 0.047 | dasatinib -0.041 | [2] -0.004 | [3] 0.054 | quisinostat -0.013 | tipifarnib -0.081 | [4] -0.037 | [5] -0.024 | [6] -0.005 | [7] 0.005 | vorinostat 0.008 | silmitasertib -0.003 | [8] -0.015 | entospletinib 0.034

TSC22D2 (UniProt O75157)
inactive: nilotinib 0.038 | [1] -0.008 | dasatinib -0.016 | [2] -0.118 | [3] -0.047 | quisinostat -0.041 | tipifarnib 0.03 | [4] -0.039 | [5] 0.015 | [6] 0.049 | [7] 0.028 | vorinostat -0.004 | silmitasertib -0.035 | [8] 0.003 | entospletinib 0.018

TSEN54 (UniProt Q7Z6J9)
inactive: nilotinib -0.1 | [1] 0.053 | dasatinib -0.033 | [2] 0.156 | [3] -0.049 | quisinostat -0.117 | tipifarnib 0.015 | [4] 0.065 | [5] 0.112 | [6] 0.023 | [7] -0.003 | vorinostat -0.193 | silmitasertib -0.021 | [8] 0.009 | entospletinib 0.033

TSSC4 (UniProt Q9Y5U2)
inactive: nilotinib -0.032 | [1] -0.13 | dasatinib 0.129 | [2] 0.034 | [3] -0.115 | quisinostat -0.063 | tipifarnib -0.042 | [4] -0.035 | [5] 0.047 | [6] 0.046 | [7] 0.039 | vorinostat -0.118 | silmitasertib -0.021 | [8] 0.03 | entospletinib -0.043

TTC4 (UniProt O95801)
inactive: nilotinib -0.04 | [1] -0.034 | dasatinib 0.025 | [2] -0.018 | [3] 0.012 | quisinostat -0.07 | tipifarnib -0.01 | [4] 0.025 | [5] 0.023 | [6] -0.018 | [7] 0.013 | silmitasertib 0.022 | [8] -0.009 | entospletinib 0
active: vorinostat -0.498

TRMT61B (UniProt Q9BVS5)
inactive: nilotinib 0.014 | [1] 0.03 | dasatinib 0.065 | [2] -0.032 | [3] -0.014 | quisinostat 0.02 | tipifarnib -0.001 | [4] 0.005 | [5] 0.026 | [6] -0.009 | [7] -0.003 | vorinostat 0.032 | silmitasertib -0.051 | [8] -0.072 | entospletinib -0.032

TSC22D4 (UniProt Q9Y3Q8)
inactive: nilotinib 0.041 | [1] 0.01 | dasatinib 0.031 | [2] -0.017 | [3] 0.051 | quisinostat -0.018 | tipifarnib 0.004 | [4] 0 | [5] 0.002 | [6] -0.018 | [7] 0.05 | vorinostat 0.03 | silmitasertib -0.042 | [8] 0.029 | entospletinib 0.02

TRAM1 (UniProt Q15629)
inactive: nilotinib -0.119 | [1] 0.023 | dasatinib -0.047 | [2] 0.112 | [3] -0.038 | quisinostat -0.063 | tipifarnib -0.031 | [4] 0.069 | [5] -0.026 | [6] 0.065 | [7] -0.185 | vorinostat 0.168 | silmitasertib 0.033 | [8] 0.082 | entospletinib 0.044

TRIM33 isoform 2 (UniProt Q9UPN9)
inactive: nilotinib 0.004 | [1] -0.012 | dasatinib -0.044 | [2] -0.015 | [3] 0.021 | quisinostat -0.035 | tipifarnib 0.021 | [4] -0.01 | [5] 0.01 | [6] -0.025 | [7] -0.005 | silmitasertib -0.026 | [8] -0.04 | entospletinib -0.024
active: vorinostat -0.393

TRMT11 (UniProt Q7Z4G4)
inactive: nilotinib 0.019 | [1] -0.092 | dasatinib 0.002 | [2] -0.041 | [3] -0.002 | quisinostat 0.022 | tipifarnib 0.003 | [4] -0.003 | [5] -0.021 | [6] 0.002 | [7] -0.032 | vorinostat -0.004 | silmitasertib 0.016 | [8] 0.001 | entospletinib -0.015

TSPAN14 (UniProt Q8NG11)
inactive: nilotinib 0.034 | [1] 0.01 | dasatinib 0.055 | [2] -0.02 | [3] 0.021 | quisinostat -0.214 | tipifarnib -0.032 | [4] 0.016 | [5] -0.029 | [6] 0.014 | [7] -0.016 | vorinostat 0.073 | silmitasertib -0.022 | [8] -0.086 | entospletinib -0.033

TTC1 (UniProt Q99614)
inactive: nilotinib 0.004 | [1] -0.011 | dasatinib 0.022 | [2] 0.004 | [3] 0.031 | quisinostat 0.08 | tipifarnib 0.008 | [4] -0.046 | [5] 0.005 | [6] 0.004 | [7] -0.011 | vorinostat 0.086 | silmitasertib -0.001 | [8] -0.032 | entospletinib -0.003

TRMT61A (UniProt Q96FX7)
inactive: nilotinib 0.025 | [1] 0.011 | dasatinib 0.028 | [2] -0.008 | [3] 0.005 | quisinostat 0.04 | tipifarnib 0.05 | [4] 0.004 | [5] 0.015 | [6] -0.011 | [7] 0.018 | vorinostat 0.059 | silmitasertib -0.06 | [8] 0.014 | entospletinib -0.035

TRAPPC6B (UniProt Q86SZ2)
inactive: nilotinib 0.018 | [1] 0.055 | dasatinib 0.039 | [2] 0.005 | [3] 0.005 | quisinostat 0.149 | tipifarnib -0.007 | [4] -0.015 | [5] 0.007 | [6] 0.003 | [7] -0.025 | vorinostat -0.009 | silmitasertib -0.012 | [8] 0.015 | entospletinib 0.008

TSPAN13 (UniProt O95857)
inactive: nilotinib -0.067 | [1] 0.02 | dasatinib -0.054 | [2] 0.121 | [3] -0.35 | quisinostat 0.034 | tipifarnib -0.032 | [4] -0.126 | [5] 0.035 | [6] 0.132 | [7] -0.024 | vorinostat 0.104 | silmitasertib -0.008 | [8] 0.008 | entospletinib -0.015

TSEN15 (UniProt Q8WW01)
inactive: nilotinib 0 | [1] 0.048 | dasatinib -0.012 | [2] 0.027 | [3] -0.004 | quisinostat -0.031 | tipifarnib 0.019 | [4] 0.022 | [5] -0.023 | [6] 0.035 | [7] -0.081 | vorinostat -0.149 | silmitasertib -0.015 | [8] -0.003 | entospletinib -0.058

TSR3 (UniProt Q9UJK0)
inactive: nilotinib 0.071 | [1] -0.011 | dasatinib 0.002 | [2] 0.092 | [3] -0.087 | quisinostat -0.058 | tipifarnib -0.021 | [4] 0.006 | [5] -0.05 | [6] 0.05 | [7] 0.047 | vorinostat -0.051 | silmitasertib 0.014 | [8] 0.091 | entospletinib -0.021

TSC22D1 (UniProt Q15714)
inactive: nilotinib -0.008 | [1] -0.028 | dasatinib 0.018 | [2] 0.024 | [3] 0.026 | quisinostat -0.022 | tipifarnib -0.01 | [4] 0 | [5] -0.024 | [6] 0.013 | [7] 0.019 | vorinostat 0.093 | silmitasertib -0.038 | [8] 0.012 | entospletinib 0.008

Quoted from the listing (three entries):
TSPAN13 (UniProt O95857)
inactive: nilotinib -0.067 | [1] 0.02 | dasatinib -0.054 | [2] 0.121 | [3] -0.35 | quisinostat 0.034 | tipifarnib -0.032 | [4] -0.126 | [5] 0.035 | [6] 0.132 | [7] -0.024 | vorinostat 0.104 | silmitasertib -0.008 | [8] 0.008 | entospletinib -0.015

TSEN15 (UniProt Q8WW01)
inactive: nilotinib 0 | [1] 0.048 | dasatinib -0.012 | [2] 0.027 | [3] -0.004 | quisinostat -0.031 | tipifarnib 0.019 | [4] 0.022 | [5] -0.023 | [6] 0.035 | [7] -0.081 | vorinostat -0.149 | silmitasertib -0.015 | [8] -0.003 | entospletinib -0.058

TSR3 (UniProt Q9UJK0)
inactive: nilotinib 0.071 | [1] -0.011 | dasatinib 0.002 | [2] 0.092 | [3] -0.087 | quisinostat -0.058 | tipifarnib -0.021 | [4] 0.006 | [5] -0.05 | [6] 0.05 | [7] 0.047 | vorinostat -0.051 | silmitasertib 0.014 | [8] 0.091 | entospletinib -0.021

Later entries

TRIM65 (UniProt Q6PJ69)
inactive: nilotinib -0.025 | [1] -0.008 | dasatinib -0.059 | [2] -0.021 | [3] 0.005 | quisinostat -0.016 | tipifarnib -0.004 | [4] 0 | [5] 0.08 | [6] -0.017 | [7] 0.018 | vorinostat -0.094 | silmitasertib -0.006 | [8] 0.002 | entospletinib -0.009
